In article PMC11311430:
No constants are given. Whether binding was seen depends on the method and setting. Binding seen in cells or lysates may run through a third protein. Some results given as binding are weak or reduced against the parent protein; the word gives no strength.

Sequences of proteins named here, by UniProt entry; tags and fusion partners are left off. Residues count along the entry.
UniProt P15502, residues 27-786: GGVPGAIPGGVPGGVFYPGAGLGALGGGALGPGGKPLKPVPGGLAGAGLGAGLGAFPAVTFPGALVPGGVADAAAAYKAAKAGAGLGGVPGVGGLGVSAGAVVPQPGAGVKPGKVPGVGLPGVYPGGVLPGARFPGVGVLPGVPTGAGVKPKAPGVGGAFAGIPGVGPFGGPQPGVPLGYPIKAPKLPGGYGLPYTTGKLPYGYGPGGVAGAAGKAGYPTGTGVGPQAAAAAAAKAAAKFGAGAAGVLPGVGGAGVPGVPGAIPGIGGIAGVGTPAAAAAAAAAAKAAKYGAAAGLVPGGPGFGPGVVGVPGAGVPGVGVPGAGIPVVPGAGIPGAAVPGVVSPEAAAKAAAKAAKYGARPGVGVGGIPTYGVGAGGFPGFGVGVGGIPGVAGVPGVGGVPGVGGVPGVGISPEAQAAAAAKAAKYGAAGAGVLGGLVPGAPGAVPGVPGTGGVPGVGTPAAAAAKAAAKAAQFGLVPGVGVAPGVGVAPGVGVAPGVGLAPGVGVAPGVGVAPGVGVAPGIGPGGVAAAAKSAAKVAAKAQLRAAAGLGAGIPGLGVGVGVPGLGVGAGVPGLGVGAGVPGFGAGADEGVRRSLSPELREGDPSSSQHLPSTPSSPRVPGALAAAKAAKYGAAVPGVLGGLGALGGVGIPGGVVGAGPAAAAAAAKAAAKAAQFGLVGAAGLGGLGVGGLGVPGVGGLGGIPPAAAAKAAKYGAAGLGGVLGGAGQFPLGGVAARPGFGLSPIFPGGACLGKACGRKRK
UniProt Q61554, residues 45-2733: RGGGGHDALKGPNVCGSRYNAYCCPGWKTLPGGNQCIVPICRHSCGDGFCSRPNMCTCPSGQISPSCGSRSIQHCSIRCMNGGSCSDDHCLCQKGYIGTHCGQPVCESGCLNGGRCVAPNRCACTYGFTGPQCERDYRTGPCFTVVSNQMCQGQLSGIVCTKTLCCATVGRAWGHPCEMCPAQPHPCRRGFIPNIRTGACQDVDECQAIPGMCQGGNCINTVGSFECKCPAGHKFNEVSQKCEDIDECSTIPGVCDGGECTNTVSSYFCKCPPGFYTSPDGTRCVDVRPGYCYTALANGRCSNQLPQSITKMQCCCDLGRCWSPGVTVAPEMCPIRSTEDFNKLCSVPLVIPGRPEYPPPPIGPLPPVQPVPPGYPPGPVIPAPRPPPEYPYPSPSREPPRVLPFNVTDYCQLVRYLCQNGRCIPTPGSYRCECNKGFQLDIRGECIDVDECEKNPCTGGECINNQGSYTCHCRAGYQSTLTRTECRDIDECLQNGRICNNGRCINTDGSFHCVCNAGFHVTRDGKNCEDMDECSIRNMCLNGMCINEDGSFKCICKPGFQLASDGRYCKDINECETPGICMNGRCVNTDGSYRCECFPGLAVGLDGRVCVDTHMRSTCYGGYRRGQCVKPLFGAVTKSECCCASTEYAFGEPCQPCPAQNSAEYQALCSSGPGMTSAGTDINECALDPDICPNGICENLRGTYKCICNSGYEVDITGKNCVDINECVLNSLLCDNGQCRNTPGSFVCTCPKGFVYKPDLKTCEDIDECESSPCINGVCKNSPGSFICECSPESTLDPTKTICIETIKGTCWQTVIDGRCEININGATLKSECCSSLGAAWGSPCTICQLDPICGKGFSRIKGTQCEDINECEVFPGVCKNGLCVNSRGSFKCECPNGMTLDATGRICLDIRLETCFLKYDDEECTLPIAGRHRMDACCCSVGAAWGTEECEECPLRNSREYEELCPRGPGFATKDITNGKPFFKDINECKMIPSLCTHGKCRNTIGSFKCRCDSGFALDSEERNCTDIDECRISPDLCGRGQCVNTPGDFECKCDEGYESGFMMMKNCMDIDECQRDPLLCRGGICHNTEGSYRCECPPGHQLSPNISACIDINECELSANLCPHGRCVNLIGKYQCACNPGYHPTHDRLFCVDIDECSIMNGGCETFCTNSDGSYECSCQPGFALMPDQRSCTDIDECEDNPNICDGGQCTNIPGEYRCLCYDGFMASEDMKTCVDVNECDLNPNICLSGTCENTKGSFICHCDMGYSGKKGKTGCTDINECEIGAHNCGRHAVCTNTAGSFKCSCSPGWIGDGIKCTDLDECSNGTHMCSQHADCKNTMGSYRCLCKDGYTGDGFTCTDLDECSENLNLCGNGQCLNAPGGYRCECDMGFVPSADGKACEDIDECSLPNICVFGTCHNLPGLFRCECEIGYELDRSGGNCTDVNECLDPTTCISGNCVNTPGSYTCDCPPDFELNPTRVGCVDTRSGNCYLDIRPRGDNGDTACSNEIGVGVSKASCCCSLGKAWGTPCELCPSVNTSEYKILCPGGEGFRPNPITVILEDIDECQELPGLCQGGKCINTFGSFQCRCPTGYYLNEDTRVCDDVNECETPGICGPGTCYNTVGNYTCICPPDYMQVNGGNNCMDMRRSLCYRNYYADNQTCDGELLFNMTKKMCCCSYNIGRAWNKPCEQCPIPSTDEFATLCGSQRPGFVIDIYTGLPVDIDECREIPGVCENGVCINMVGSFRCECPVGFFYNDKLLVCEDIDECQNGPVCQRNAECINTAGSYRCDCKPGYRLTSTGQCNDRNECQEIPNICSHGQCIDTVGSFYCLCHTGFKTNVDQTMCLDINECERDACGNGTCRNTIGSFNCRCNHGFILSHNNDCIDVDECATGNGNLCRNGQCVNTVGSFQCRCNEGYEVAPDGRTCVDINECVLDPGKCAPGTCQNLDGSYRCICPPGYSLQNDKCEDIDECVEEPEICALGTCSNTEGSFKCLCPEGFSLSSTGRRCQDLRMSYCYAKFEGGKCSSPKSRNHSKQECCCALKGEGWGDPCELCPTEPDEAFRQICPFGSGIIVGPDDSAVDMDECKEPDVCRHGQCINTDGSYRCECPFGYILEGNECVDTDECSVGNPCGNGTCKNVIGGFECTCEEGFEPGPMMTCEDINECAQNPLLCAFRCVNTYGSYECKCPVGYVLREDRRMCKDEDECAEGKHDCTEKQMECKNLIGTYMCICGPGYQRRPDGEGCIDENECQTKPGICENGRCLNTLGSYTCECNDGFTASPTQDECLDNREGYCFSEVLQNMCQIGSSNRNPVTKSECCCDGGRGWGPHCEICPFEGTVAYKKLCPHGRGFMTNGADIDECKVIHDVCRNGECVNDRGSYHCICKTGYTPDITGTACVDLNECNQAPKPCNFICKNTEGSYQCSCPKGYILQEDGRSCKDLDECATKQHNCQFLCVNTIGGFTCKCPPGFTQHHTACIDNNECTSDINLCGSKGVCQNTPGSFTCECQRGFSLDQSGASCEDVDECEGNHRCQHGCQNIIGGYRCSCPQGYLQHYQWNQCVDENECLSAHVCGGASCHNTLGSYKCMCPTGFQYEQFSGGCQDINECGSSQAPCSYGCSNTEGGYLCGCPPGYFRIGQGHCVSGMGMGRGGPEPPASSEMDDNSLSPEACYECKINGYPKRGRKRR
UniProt P35555, residues 45-2731: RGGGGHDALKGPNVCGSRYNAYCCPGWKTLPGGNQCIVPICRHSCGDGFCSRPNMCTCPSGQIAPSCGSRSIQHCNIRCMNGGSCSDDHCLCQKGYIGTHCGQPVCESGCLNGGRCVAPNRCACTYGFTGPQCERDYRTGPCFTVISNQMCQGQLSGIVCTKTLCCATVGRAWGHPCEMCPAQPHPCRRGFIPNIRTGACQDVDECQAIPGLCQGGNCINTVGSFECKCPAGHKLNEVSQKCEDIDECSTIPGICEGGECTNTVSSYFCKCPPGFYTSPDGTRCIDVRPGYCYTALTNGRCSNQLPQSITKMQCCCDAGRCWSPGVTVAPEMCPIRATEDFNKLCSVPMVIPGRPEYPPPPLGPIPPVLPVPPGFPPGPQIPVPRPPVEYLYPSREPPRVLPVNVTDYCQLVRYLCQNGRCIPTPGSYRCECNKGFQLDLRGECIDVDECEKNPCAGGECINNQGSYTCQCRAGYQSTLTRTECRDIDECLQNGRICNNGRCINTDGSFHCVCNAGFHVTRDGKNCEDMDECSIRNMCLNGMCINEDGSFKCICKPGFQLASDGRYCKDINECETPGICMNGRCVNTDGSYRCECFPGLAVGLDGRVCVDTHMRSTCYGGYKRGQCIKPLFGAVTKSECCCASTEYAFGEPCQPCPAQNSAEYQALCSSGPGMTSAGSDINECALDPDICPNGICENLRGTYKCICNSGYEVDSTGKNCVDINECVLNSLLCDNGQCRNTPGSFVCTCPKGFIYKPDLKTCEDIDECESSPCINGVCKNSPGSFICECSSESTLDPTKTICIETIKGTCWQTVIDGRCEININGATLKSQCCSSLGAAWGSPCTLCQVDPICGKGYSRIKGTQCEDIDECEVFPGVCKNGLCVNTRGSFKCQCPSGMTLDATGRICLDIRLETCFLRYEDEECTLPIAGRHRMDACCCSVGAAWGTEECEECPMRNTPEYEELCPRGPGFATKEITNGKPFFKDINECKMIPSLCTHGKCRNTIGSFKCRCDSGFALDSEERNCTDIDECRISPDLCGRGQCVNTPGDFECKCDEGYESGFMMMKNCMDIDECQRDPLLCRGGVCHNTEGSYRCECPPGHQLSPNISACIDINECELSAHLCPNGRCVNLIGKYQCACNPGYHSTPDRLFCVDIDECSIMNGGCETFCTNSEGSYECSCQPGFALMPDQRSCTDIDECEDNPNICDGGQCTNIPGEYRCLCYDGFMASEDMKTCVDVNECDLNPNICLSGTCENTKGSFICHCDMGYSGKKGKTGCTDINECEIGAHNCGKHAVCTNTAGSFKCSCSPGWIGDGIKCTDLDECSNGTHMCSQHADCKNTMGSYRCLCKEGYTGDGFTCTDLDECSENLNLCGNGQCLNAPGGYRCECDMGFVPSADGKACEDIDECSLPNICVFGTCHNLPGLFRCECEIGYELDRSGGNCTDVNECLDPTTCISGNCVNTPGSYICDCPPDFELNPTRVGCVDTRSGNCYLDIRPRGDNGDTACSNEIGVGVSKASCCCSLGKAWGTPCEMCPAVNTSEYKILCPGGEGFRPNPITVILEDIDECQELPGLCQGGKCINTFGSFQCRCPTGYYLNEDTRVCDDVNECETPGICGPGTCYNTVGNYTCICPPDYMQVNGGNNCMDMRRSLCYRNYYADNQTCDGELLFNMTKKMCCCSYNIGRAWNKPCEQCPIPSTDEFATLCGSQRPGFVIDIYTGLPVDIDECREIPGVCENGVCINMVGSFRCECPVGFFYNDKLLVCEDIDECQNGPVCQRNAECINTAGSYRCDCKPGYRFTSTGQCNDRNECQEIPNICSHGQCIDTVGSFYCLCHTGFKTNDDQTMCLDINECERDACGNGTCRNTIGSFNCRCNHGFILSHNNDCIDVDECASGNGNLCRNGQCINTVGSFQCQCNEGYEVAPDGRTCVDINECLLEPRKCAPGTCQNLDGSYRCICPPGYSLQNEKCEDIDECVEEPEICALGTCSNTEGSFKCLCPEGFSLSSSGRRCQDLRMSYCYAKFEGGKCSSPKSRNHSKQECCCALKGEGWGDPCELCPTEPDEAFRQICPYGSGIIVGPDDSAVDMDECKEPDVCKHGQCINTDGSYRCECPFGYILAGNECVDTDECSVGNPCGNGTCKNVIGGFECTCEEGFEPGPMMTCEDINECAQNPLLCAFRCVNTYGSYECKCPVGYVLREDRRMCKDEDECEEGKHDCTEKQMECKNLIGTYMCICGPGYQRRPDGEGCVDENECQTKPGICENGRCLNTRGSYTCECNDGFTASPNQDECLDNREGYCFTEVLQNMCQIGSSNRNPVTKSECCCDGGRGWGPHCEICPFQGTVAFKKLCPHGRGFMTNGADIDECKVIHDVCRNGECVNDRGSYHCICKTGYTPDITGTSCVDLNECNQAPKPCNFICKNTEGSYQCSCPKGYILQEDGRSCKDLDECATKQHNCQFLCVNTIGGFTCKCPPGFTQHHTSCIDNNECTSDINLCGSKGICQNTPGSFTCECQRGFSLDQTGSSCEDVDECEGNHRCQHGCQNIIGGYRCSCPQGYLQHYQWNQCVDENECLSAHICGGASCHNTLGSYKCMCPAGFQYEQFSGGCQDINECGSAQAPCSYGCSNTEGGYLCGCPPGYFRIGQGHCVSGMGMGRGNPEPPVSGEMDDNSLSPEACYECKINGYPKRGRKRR

Key:
[1] = target: T1, elastin (mouse aorta) (mouse (endogenous in thoracic aorta)) (UniProt P54320); assay: co-IP; thoracic aorta tissue of WT and ADAR1sm-/- mice lysed in Co-IP lysis buffer; supernatant incubated overnight at 4 °C with protein A/G-agarose beads carrying normal IgG, elastin or fibrillin-1 antibody; Western blot for fibrillin-1 and elastin
T1 sequence: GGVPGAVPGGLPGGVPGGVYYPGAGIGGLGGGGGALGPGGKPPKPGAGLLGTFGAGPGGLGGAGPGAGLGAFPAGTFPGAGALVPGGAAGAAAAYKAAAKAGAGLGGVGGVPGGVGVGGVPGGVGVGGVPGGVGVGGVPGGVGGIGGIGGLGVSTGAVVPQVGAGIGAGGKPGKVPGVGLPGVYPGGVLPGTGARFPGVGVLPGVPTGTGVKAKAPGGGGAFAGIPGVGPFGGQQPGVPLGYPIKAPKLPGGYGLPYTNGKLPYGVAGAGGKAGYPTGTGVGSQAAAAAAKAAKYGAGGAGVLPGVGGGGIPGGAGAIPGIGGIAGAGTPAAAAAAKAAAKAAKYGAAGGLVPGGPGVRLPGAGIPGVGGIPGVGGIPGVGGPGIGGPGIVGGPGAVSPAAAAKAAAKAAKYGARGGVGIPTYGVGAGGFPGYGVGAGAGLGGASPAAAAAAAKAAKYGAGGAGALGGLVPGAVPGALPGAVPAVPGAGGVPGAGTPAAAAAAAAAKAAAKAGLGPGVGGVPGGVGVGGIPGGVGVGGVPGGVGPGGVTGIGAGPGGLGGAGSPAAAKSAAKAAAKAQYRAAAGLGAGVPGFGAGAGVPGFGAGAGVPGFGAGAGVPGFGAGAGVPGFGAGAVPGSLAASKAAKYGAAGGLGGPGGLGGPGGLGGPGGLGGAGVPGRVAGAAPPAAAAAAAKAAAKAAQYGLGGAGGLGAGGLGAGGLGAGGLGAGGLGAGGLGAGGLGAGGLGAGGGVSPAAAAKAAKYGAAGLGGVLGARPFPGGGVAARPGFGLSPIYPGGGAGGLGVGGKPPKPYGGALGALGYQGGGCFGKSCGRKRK

[2] = target: T1, elastin (mouse aorta) (mouse (endogenous in thoracic aorta)); assay: proximity ligation; in situ PLA (Duo-link kit) on 5 µm paraffin sections of Myh11-CreERT2 (WT, tamoxifen-injected) mouse descending thoracic aorta; rabbit anti-elastin and mouse anti-fibrillin-1 antibodies at 4 °C overnight
[3] = target: elastin (human aorta) (human (endogenous in ascending aorta)) (UniProt P15502); assay: proximity ligation; in situ PLA on paraffin sections of healthy human (Ctrl) ascending aorta; anti-elastin and anti-fibrillin-1 antibodies

Row | Substance | binding [1] | binding [2] | binding [3]
1 | fibrillin-1 (mouse aorta) (from UniProt Q61554 45-2733) | binds | binds | 
2 | fibrillin-1 (healthy human aorta) (from UniProt P35555 45-2731) |  |  | binds
